# PubChem BioAssay AID624297 (National Center for Advancing Translational Sciences (NCATS), 2012)
# Hit rate of the full screen: of about 340,000 compounds, about 6,200 (1.8%) were called active. Inconclusive means that the source gave no clear call. Such entries were picked first, then a sample of the others. Calls follow the shape of the dose curve; as a rule, active = well fitted activation curve with a large enough effect; inconclusive = small, poorly fitted or top-dose-only effect; inactive = no such curve, though single readings can be large or run the other way. Where the call is inconclusive, the potency comes from a doubtful curve fit.
# Assay: A quantitative high throughput screen for small molecules that induce DNA re-replication in SW480 colon adenocarcinoma cells. Also: nearly all actives have a fitted effect of over 55% in size. As to re-replication activation: % of control where 0% means no effect.
# Conditions: Hoechst DNA content imaging, 48 h; re-replication activation: at 46.1 µM (top of the series) unless noted
# Outline: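 Treated cells incubate 48 hr (37 C, 5% CO2), are stained 40 min with Hoechst, and nuclear fluorescence is enumerated; a rise in nuclei with high DNA signal marks re-replication.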
# Potency is read from the fitted curve at half-maximal effect.
SMILES,re-replication activation,Potency
Cc1cccc(N=C2CSC(=O)N2)c1,inactive: -1.1%,
COc1ccc(NC(=O)c2nnn(CC(=O)Nc3ccc4c(c3)OCO4)c2N)cc1OC,,"inconclusive: 32.6 µM [activator, single point]"
Cc1nc(C(=O)NNC(=O)c2ccccc2Cl)c(C(F)(F)F)o1,,"inconclusive: 32.6 µM [activator, partial curve, poor fit]"
FC(F)Oc1ccc(NC(=S)NCc2ccccc2)cc1Cl,,"inconclusive: 13 µM [activator, partial curve]"
COc1ccc(C(=O)CC(=O)C(=O)Nc2cc(C)ccc2C)cc1,,"inconclusive: 16.4 µM [activator, partial curve, poor fit]"
Cc1ccc2ncnc(Oc3ncccc3[N+](=O)[O-])c2c1,inactive: -15.5%,
Cc1ccc(C(=O)CSc2nc(-c3ccccc3)ccc2C#N)cc1,,"inconclusive: 6.51 µM [activator, single point]"
CN(C)CCN(C)Cc1c2ccccc2c(CN(C)CCN(C)C)c2ccccc12,,"inconclusive: 29.1 µM [activator, single point]"
O=C(Nc1ncc2c(n1)CC(c1ccccc1)CC2=O)c1ccco1 (stereo not given),inactive: 2.04%,
NS(=O)(=O)c1ccc(N2N=C(c3ccccc3)CC2c2ccccc2Cl)cc1 (stereo not given),,active: 4.61 µM
Cc1ccc([N+](=O)[O-])cc1NC(=S)NC(=O)CC(C)(C)C,inactive: 5.75%,
Cc1cc(NC(=O)CSc2cn(CC(=O)N(C(C)C)C(C)C)c3ccccc23)no1,,"inconclusive: 16.4 µM [activator, single point]"
O=C(Cn1c(=O)oc2cc(S(=O)(=O)N3CCCCC3)ccc21)N1CCCCC1,inactive: -4.04%,
CCCCn1nnnc1SCC(=O)Nc1ccc2c(c1)OCCO2,,"inconclusive: 3.66 µM [activator, full curve, poor fit]"
COc1ccc(CCNS(=O)(=O)c2cn(C)c(=O)n(C)c2=O)cc1,inactive: -5.93%,
CCOc1cccc2sc(N(CCCN(C)C)C(=O)c3ccc(C(=O)c4ccccc4)cc3)nc12,,"inconclusive: 29.1 µM [activator, partial curve, poor fit]"
Cc1cc(C)n2nc(N)c(N=Nc3ccccc3)c2n1,inactive: -1.31%,
O=C(OC(C(=O)NC1CCCCC1)c1ccc(C(F)(F)F)cc1)c1ccco1 (stereo not given),inactive: -5.77%,

# Single records (already shown):
# NS(=O)(=O)c1ccc(N2N=C(c3ccccc3)CC2c2ccccc2Cl)cc1 (stereo not given) is listed with Potency: active: 4.61 µM
# O=C(Nc1ncc2c(n1)CC(c1ccccc1)CC2=O)c1ccco1 (stereo not given) is listed with re-replication activation: inactive: 2.04%

# Next results follow:

SMILES,re-replication activation,Potency
O=C(c1ccccc1CCc1ccccc1)N1CCCC1,,"inconclusive: 7.31 µM [activator, single point]"
Cc1ccc2oc(=O)c3cnn(CC(=O)NC4CCCCC4C)c3c2c1 (stereo not given),,"inconclusive: 1.3 µM [activator, full curve, poor fit]"
C=COC(=O)NC1CCc2cc(OC)c(OC)c(OC)c2-c2ccc(SC)c(=O)cc21 (stereo not given),,"inconclusive: 0.13 µM [activator, partial curve, poor fit]"
Cc1ccc(N2CC(C(=O)NCc3nnnn3-c3ccc(C)c(C)c3)CC2=O)cc1 (stereo not given),inactive: -2.42%,
CC(=O)Cn1ncc(N2CCCCC2)c(Cl)c1=O,,"inconclusive: 0.146 µM [activator, full curve, poor fit]"
O=C(CSc1nnnn1-c1ccc(O)cc1)c1ccc(F)cc1,,"inconclusive: 29.1 µM [activator, single point]"
CC/C(=C\c1ccc(N(C)C)cc1)c1ccncc1,,"inconclusive: 18.4 µM [activator, single point]"
O=C(CCc1ccccc1)NNC(=O)c1ccccn1,,"inconclusive: 11.6 µM [activator, partial curve]"
O=C(/C=C/c1ccc2c(c1)OCO2)NCCSCc1ccc(Cl)cc1Cl,inactive: -2.31%,
COc1ccc(CNC(=O)N2CCN(S(=O)(=O)c3ccccc3)CC2)cc1,,"inconclusive: 6.31 µM [activator, single point]"
Cn1cccc1CNC(=S)Nc1cc(F)cc(F)c1,,"inconclusive: 18.4 µM [activator, single point]"
Cc1scc(C(=O)NCc2ccco2)c1-c1ccccc1,,"inconclusive: 20.6 µM [activator, single point]"
Cc1cc(C)cc(NS(=O)(=O)c2ccc(F)cc2)c1,,"inconclusive: 1.03 µM [activator, full curve, poor fit]"
O=C(NCc1ccc(Cl)cc1)C(=O)NCC1OCCN1S(=O)(=O)c1cc(F)ccc1F (stereo not given),,"inconclusive: 32.6 µM [activator, partial curve, poor fit]"
Cc1ccc(C(=O)NCC(=O)OCC(=O)Nc2ccc3[nH]c(=O)[nH]c3c2)cc1,,"inconclusive: 29.1 µM [activator, partial curve, poor fit]"
COc1ccc(C(C#N)=C2C=CC(=NO)C(C)=C2Cl)cc1,,"inconclusive: 29.1 µM [activator, single point]"
O=C(O)/C=C/C(=O)NNc1ccc([N+](=O)[O-])cc1,,"inconclusive: 20.6 µM [activator, single point]"
